For part of these data: The amount applied is not stated for every result.

For data set [1], the system named is CCRF-CEM cells. The data set is described as follows: Two drug combination study of vinblastine and 5-N-acetylardeemin on CCRF-CEM, 72 hr, XTT assay. The format is cell-based, human. Conditions: Table 2, drug alone. An excerpt:
CCRF-CEM Cell Line at 72-HR Exposure Time. Based on XTT
On the technique in general: Tetrazolium dyes change colour on reduction, which living cells bring about.

Data set [2] concerns vinblastine-resistant CCRF-CEM cells (CCRF-CEM/VBL100). Nature of the data set: Two drug combination study of vinblastine and 5-N-acetylardeemin on vinblastine-resistant CCRF-CEM, 72 hr, XTT assay. In kind it is cell-based, human. An excerpt:
Vinblastine-resistant CCRF-CEM Cell Line at 72-HR Exposure Time.
Based on XTT Assay. (large-scale study)

Take `CC[C@]1(O)C[C@@H]2CN(CCc3c([nH]c4ccccc34)[C@@](C(=O)OC)(c3cc4c(cc3OC)N(C)[C@H]3[C@@](O)(C(=O)OC)[C@H](OC(C)=O)[C@]5(CC)C=CCN6CC[C@]43[C@@H]65)C2)C1` [Vinblastine, reference compound]: in data set [1], the “m (slope of median-effect plot)” value was determined as 2.535. For the same compound, the m in data set [2] (Table 3, drug alone) came out at 2.392; in data set [2] (Table 4, drug alone), 1.73.

`C=CC(C)(C)C12CC3c4nc5ccccc5c(=O)n4C(C)C(=O)N3C1N(C(C)=O)c1ccccc12` (stereo not drawn) [5-N-Acetylardeemin]: the “m (slope of median-effect plot)” value in data set [1] was “.78648”. Further, the m in data set [2] (Table 3, drug alone) is 1.233; in data set [2] (Table 4, drug alone), 1.101.

(Values after patent US6147076A, “Analogues of N-acetylardeemin, method of preparation and uses thereof” (priority 1996, dated 2000).)
